# Measurements from PubChem BioAssay AID651640 (Broad Institute, 2012).
# In all, about 350,000 compounds went through this assay and about 6,000 (1.7%) were called active. Inconclusive means that the source gave no clear call. Such entries were picked first, then a sample of the others. Cut-off read from the data, not from the text of the source: active = CPE inhibition above about 20% (passing the limit was not always enough); inconclusive = no clear call, values can overlap the other calls; tested in BHK-21 cells.
# Experiment: protection of cells from dengue 2 killing – plate reader, single concentration, primary screen (AID 651640);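 note: 0% = median of neutral control wells and 100% = median of positive control wells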
# Details: DENV2-infected cells, cytopathic effect rescue, at 9.99 µM, stronger effect = higher value
row,Structure (SMILES),CPE inhibition
1,C[C@@H]1CN([C@H](C)CO)C(=O)c2cc(NC(=O)C3CCCCC3)ccc2O[C@@H](C)CCCCO[C@H]1CN(C)C(=O)c1ccncc1,inconclusive: 23.8%
2,CCOC(=O)c1ccc(NC(=O)c2ncn3c2C(=O)NC[C@@H]3C)cc1,inconclusive: 74%
3,N#CC1=C(N)N2C(=C(C#N)C1c1cccc(Br)c1)Nc1ccccc12 (stereo unspecified),inactive: 1.05%
4,CCOC(=O)C1(C)CCCN(C(=O)c2ccc3snnc3c2)C1 (stereo unspecified),inconclusive: 21.5%
5,O=C(NCC1CCN(C(=O)C(=O)c2cc3ccccc3o2)CC1)c1cccnc1,inconclusive: 40.5%
6,NC(COCc1ccccc1)c1csc(Nc2nccc(C(F)(F)F)n2)n1 (stereo unspecified),inconclusive: 28.8%
7,CCN(CC)S(=O)(=O)c1ccc(N2CCN(CCOc3ccc(OC)cc3)CC2)nc1,inconclusive: 32.7%
8,CC(C)NC(=O)N(C)C[C@H]1Oc2ncc(C#CC3(O)CCCC3)cc2C(=O)N([C@@H](C)CO)C[C@@H]1C,active: 31.8%
9,COc1ccc2c3c(n(C)c2c1)[C@H](CO)N(C(=O)CN(C)C)CC31CN(C(=O)C2CCC2)C1,inactive: 2.4%
10,CC(C)[C@@H](C(=O)O)N(Cc1cccc(CN([C@H](C(=O)O)C(C)C)S(C)(=O)=O)c1)S(C)(=O)=O,inconclusive: 20.7%
11,COC(=O)C1=C(CCc2ccccc2)NC(=O)NC1c1ccc(C#N)cc1 (stereo unspecified),inconclusive: 22.8%
12,O=C(Cc1ccccc1)NC1CCN(Cc2ccccc2)CC1,inconclusive: 35.8%
13,CCOC(=O)[C@H]1[C@H]2COc3cc(OC)ccc3[C@@H]2N2C(=O)c3ccc(C)cc3NC(=O)[C@@]12C,inconclusive: 26%
14,CC(C)(C)OC(=O)NCCCCCNC(=O)c1nc[nH]c1C(=O)N1CCc2ccccc2C1,inactive: -11.9%
15,C=CCn1c(SCC(=O)NNC(=O)Nc2ccc(C)cc2)nnc1-c1ccccc1,inactive: -4.27%
16,Cc1cc(-c2nnc(CCC(=O)NCC(C)c3ccccc3)o2)no1 (stereo unspecified),inconclusive: 36.5%
17,CN(C)S(=O)(=O)c1ccc(Cl)c(NC(=O)COc2ccccc2[N+](=O)[O-])c1,inconclusive: 57.7%
18,CCCC1CC(CCc2ccccc2)OS(=O)(=O)N1 (stereo unspecified),active: 40.2%
19,C[C@@H]1CN([C@H](C)CO)C(=O)c2cc(NC(=O)Nc3ccc4c(c3)OCO4)ccc2O[C@@H]1CN(C)CC1CCCCC1,inactive: 14.2%
20,CCOc1ccc(S(=O)(=O)N2CCCC(C(=O)NCC3CCCO3)C2)cc1Cl (stereo unspecified),inconclusive: 24.6%
21,CCC(=O)Nc1ccc2c(c1)C(=O)N(C)[C@H]1CC[C@@H](CC(=O)NCCOC)O[C@H]1CO2,inconclusive: 58.6%

# Single entries from above.
# `O=C(NCC1CCN(C(=O)C(=O)c2cc3ccccc3o2)CC1)c1cccnc1` | CPE inhibition: inconclusive: 40.5%
# `C=CCn1c(SCC(=O)NNC(=O)Nc2ccc(C)cc2)nnc1-c1ccccc1` | CPE inhibition: inactive: -4.27%
